From the supplement of paper PMC12578635
Some of the results follow. No stated cut-off is given here; in the data, active = 150% or more and inactive = the rest. Most values come without repeats; read them as rough.

Each molecule was assayed on Staphylococcus aureus JE2-lux inside RAW 264.7 macrophages (assay: intracellular bacterial bioluminescence relative to DMSO vehicle; higher = higher intracellular bacterial metabolic activity). Conditions: 10 µM; treatment time 4 h; gentamicin 50 µg/ml.

Intracellular bacterial bioluminescence, inactive:
Cc1cc(C)nc(SCC(=O)Nc2ncc(Cc3cccc4ccccc34)s2)n1 43.9%
CCOC(=O)c1ccccc1NC(=O)CSc1nc(=O)n(CCN(CC)CC)c2c1CCCC2 113%
COc1cccc(C(=O)N2CC(=O)Nc3ccc(Cl)cc3C2c2ccc(F)cc2)c1OC (centres undefined) 104%
Cc1cn2c3c(=O)n(C/C=C/c4ccccc4)c(=O)n(C)c3nc2n1-c1ccccc1F 118%
Cc1ccc(Cc2nnc(-c3cccc(NS(=O)(=O)c4ccc(N5CCCC5=O)cc4)c3)o2)cc1 80.9%
COc1ccc(CNC(=O)Cn2nnc(-c3ccc(Cl)cc3)n2)cc1 66.1%
O=C(CCCN1C(=O)c2cccc3cccc(c23)C1=O)Nc1ccon1 28.7%
Cc1cc(C)c2cc(CN(C(=O)c3cnccn3)C3CCCC3)c(Cl)nc2c1 110%
O=C(CSc1ncc(CO)n1Cc1ccccc1)Nc1nccs1 105%
O=C1c2cccc3cccc(c23)C(=O)N1CCc1ccc(S(=O)(=O)N2CCCCC2)cc1 110%
CCn1c2ccccc2n2c(=O)n(CC(=O)NC(C)(C)C)nc12 97.7%
COc1ccc(CNc2nc3c(S(=O)(=O)c4ccc(F)cc4)nnn3c3ccccc23)cc1 136%
O=C(C1=C(O)C(=O)N(CCCn2ccnc2)C1c1ccccn1)c1ccccc1 (centres undefined) 142%
Nc1nc(SCCCC(=O)NC2CCCCC2)nc2sc3c(c12)CCCC3 130%
Oc1ccc(Nc2nc(-c3ccccc3)c3cc(Cl)ccc3n2)cc1 106%
COC(=O)Cn1/c(=N/C(=O)CSCC(=O)Nc2cc(C)on2)sc2cc(OC)ccc21 50.2%
Cn1ncc2c1CCc1sc(NC(=O)COCC3CCCCO3)nc1-2 (centres undefined) 105%
COc1cccc(NC(=O)NNc2nc3c(-c4ccccc4)nnn3c3ccccc23)c1 110%
Cc1cccc2cc(CN(Cc3ccc4c(c3)OCO4)C(=O)NCc3ccccc3)c3nnnn3c12 118%
COc1ccc(-c2cnnn2-c2ccc(NC(=O)c3cc4ccccc4oc3=O)cc2)cc1OC 68.7%
COC(=O)c1ccc(CSc2ncnc3c2nnn3-c2ccc(OC)cc2)o1 115%
O=C(CSc1nnc2c(n1)[nH]c1ccc(F)cc12)NC1CCCCCC1 64%
O=C(CN1C(=O)CCC1=O)Nc1ncc(S(=O)(=O)c2ccc([N+](=O)[O-])cc2)s1 73.1%
Cn1c(=O)n(CC(=O)N2CCCC(c3ccccc3)C2)c2cccnc21 (centres undefined) 48%

Two neighbouring entries out of the list so far, for reference:
Intracellular bacterial bioluminescence, inactive:
Cc1cccc2cc(CN(Cc3ccc4c(c3)OCO4)C(=O)NCc3ccccc3)c3nnnn3c12 118%
COc1ccc(-c2cnnn2-c2ccc(NC(=O)c3cc4ccccc4oc3=O)cc2)cc1OC 68.7%
